# Some of the results follow.
# By UniProt entry, the sequences of proteins in these tests, tags left out.
# UniProt Q0JBA9, entry or part of it: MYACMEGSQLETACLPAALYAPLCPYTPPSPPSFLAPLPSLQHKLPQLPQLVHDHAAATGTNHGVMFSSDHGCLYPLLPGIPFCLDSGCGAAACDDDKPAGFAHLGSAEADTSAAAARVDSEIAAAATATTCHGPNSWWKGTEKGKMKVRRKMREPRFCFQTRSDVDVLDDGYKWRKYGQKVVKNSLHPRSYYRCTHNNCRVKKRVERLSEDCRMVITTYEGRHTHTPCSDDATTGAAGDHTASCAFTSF
# Molecular target: OsWRKY34 (Oryza sativa, UniProt Q0JBA9 1-250)
# Assay: protein-binding microarray (RPBM); PBS, 2% BSA, 51.3 ng/ul salmon testes DNA, 50 uM zinc acetate, 200 nM TF, 25 C, 1 h; high values mean tight binding
# Settings: protein: recombinant; tags: N-terminal polyhistidine and DsRed monomer fusion (pET32a); label: CyDye5-dUTP incorporated in the synthesized complementary strand; 3' TTTTT single-stranded linker to array surface; dsDNA, one strand shown
# In short: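 Binding signal is reported as fluorescence intensity per feature (arbitrary units) from an Axon 4000B scanner. Incubation used 200 nM of each Ni–NTA-purified, N-terminally polyhistidine- and DsRed-fused transcription factor from E. coli BL21-CodonPlus on a double-stranded custom Agilent array for 1 h at 25 °C, with 50 µM zinc acetate in the buffer, followed by washing.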
row,Sequence,binding signal
1,CGTGGTGAAGTGGTGGGGAGTTGCGGGAGGGAGGCATAGGCGGAGTCACCTAGTGCAG,12400 fluorescence intensity (a.u.)
2,GATACATCACATTTCTTTCTTCAAAACACACACACACACACGGAGTCACCTAGTGCAG,8300 fluorescence intensity (a.u.)
3,GACATGGCACGTTGACTTGGTCCAGCTGTGCTGACGTGGCCGGAGTCACCTAGTGCAG,10000 fluorescence intensity (a.u.)
4,AATCTACTTGTTAAGTTCATTTCTTTAATATTTATTTGTTCGGAGTCACCTAGTGCAG,9180 fluorescence intensity (a.u.)
5,TTTTGCCCACAACTACATGCTCCTTTTTGTGTTCTTGTTTCGGAGTCACCTAGTGCAG,10000 fluorescence intensity (a.u.)
6,GCGTGGATCTCGGGGCGCGGGGCTAGGGTTTAGTATGGCTCGGAGTCACCTAGTGCAG,12800 fluorescence intensity (a.u.)
7,GGCGGGAGGCGCGGGCGGCGAGGTGCTCCTCTTCTCTCTCCGGAGTCACCTAGTGCAG,9060 fluorescence intensity (a.u.)
8,TTGCTTGTGTTGATGTGTGTAATTAACAGATACTTGTAATCGGAGTCACCTAGTGCAG,8470 fluorescence intensity (a.u.)
9,GCCGCACAACCCACCACCACCACCACCACCGATCTGCGGACGGAGTCACCTAGTGCAG,9940 fluorescence intensity (a.u.)
10,TACCCGATCTTACATAACATTGACATGGTATGTCATACACCGGAGTCACCTAGTGCAG,8940 fluorescence intensity (a.u.)
11,TCTGGTCCCATCTGTCATACACACATTACGTCTTGTAGTCCGGAGTCACCTAGTGCAG,10300 fluorescence intensity (a.u.)
12,CGTTATTATGTGGTTGTTGATGCTTATTCTACGTTAAGCACGGAGTCACCTAGTGCAG,10300 fluorescence intensity (a.u.)
13,GATATATTATACTCTAGTTTGATGCCCATCTGTTCCTATACGGAGTCACCTAGTGCAG,8050 fluorescence intensity (a.u.)
14,GACTTGTTATCGTATAATTAATTAAGTACTATCGTATAATCGGAGTCACCTAGTGCAG,8050 fluorescence intensity (a.u.)
15,TGTAGAGAACCCACATGTTTCTGGTAGAATCTTCTCCCTGCGGAGTCACCTAGTGCAG,8050 fluorescence intensity (a.u.)
16,ATCAGGTTTGCCGCGAGTTGTACTTCCTTGCACGCCACCACGGAGTCACCTAGTGCAG,8340 fluorescence intensity (a.u.)
17,CTTGGTTGGTTGGTTGATCGATCCGGTGCCCGGATTTGGGCGGAGTCACCTAGTGCAG,8620 fluorescence intensity (a.u.)
18,TCTCGCCTTTTATTTCTTCTTCTTCTTCCCTTCTCCGTCGCGGAGTCACCTAGTGCAG,8290 fluorescence intensity (a.u.)
19,GAGATGTTGGTTTTGTGGGTTGAGGGATGATTTTATAACTCGGAGTCACCTAGTGCAG,13700 fluorescence intensity (a.u.)
20,CCCACGTTCTTTTCCCAATTTCAAACGCCGTTTTTTTTTCCGGAGTCACCTAGTGCAG,8070 fluorescence intensity (a.u.)
21,GCTCATGTATATATGCTACATATGTCACTATATATATTTACGGAGTCACCTAGTGCAG,8640 fluorescence intensity (a.u.)

# Given with tabs: part of the list above
row	Sequence	binding signal
1	CGTGGTGAAGTGGTGGGGAGTTGCGGGAGGGAGGCATAGGCGGAGTCACCTAGTGCAG	12400 fluorescence intensity (a.u.)
2	GATACATCACATTTCTTTCTTCAAAACACACACACACACACGGAGTCACCTAGTGCAG	8300 fluorescence intensity (a.u.)
3	GACATGGCACGTTGACTTGGTCCAGCTGTGCTGACGTGGCCGGAGTCACCTAGTGCAG	10000 fluorescence intensity (a.u.)
4	AATCTACTTGTTAAGTTCATTTCTTTAATATTTATTTGTTCGGAGTCACCTAGTGCAG	9180 fluorescence intensity (a.u.)

# As a working copy, some entries already given.
row,Sequence,binding signal
6,GCGTGGATCTCGGGGCGCGGGGCTAGGGTTTAGTATGGCTCGGAGTCACCTAGTGCAG,12800 fluorescence intensity (a.u.)
7,GGCGGGAGGCGCGGGCGGCGAGGTGCTCCTCTTCTCTCTCCGGAGTCACCTAGTGCAG,9060 fluorescence intensity (a.u.)

# Next part:

row,Sequence,binding signal
1,GATCGCGGACCGCGTGGGCTTTTTGCCTTCCTGGGCTTTCCGGAGTCACCTAGTGCAG,8260 fluorescence intensity (a.u.)
2,TAACTTTCCTTGCATTCCTTCTGCTTGCCAAGTACATTGTCGGAGTCACCTAGTGCAG,13900 fluorescence intensity (a.u.)
3,TCAAGCCTAAATTGGGTGTCCCCACAGTCGTCCAGTCCGACGGAGTCACCTAGTGCAG,8880 fluorescence intensity (a.u.)
4,AAATTTAAAGCGGTTTGACTTTGACCATAATCAAAAAGACCGGAGTCACCTAGTGCAG,8630 fluorescence intensity (a.u.)
5,CAGCTTCATCTCCAGCCAACACTAGTATCCCATCCATTCTCGGAGTCACCTAGTGCAG,8860 fluorescence intensity (a.u.)
6,GCTCGCGGCGGCGCTCCTCTACCGCGCGCCCTTTTCCAAGCGGAGTCACCTAGTGCAG,8850 fluorescence intensity (a.u.)
7,CGCCGCCTCCTCTCTCCGTCTCGCTTCGGTTCCTTCCTCGCGGAGTCACCTAGTGCAG,13100 fluorescence intensity (a.u.)
8,CTGTGAATTGTATTTCACTTCCATTCCTGCTTCCGCCCTTCGGAGTCACCTAGTGCAG,9160 fluorescence intensity (a.u.)
9,CTACACACATAAACTTTCAACTTTTCTGTCACATCGTTCTCGGAGTCACCTAGTGCAG,8960 fluorescence intensity (a.u.)
10,ACATATCCTAAGGAACTCTAGTTCCGCGTCTAATTTATCTCGGAGTCACCTAGTGCAG,8670 fluorescence intensity (a.u.)
11,TCTGTGTTTTGCAATTATCTGTTTTACACTTATATTCCTACGGAGTCACCTAGTGCAG,11100 fluorescence intensity (a.u.)
12,ATCTGTGCAAGAAGGAACGAAGAGCACGGCATGATGAAGTCGGAGTCACCTAGTGCAG,8320 fluorescence intensity (a.u.)
13,ACTCCACCATCGCTCGCGACCCGCGCCCACGCCCGCGCACCGGAGTCACCTAGTGCAG,10000 fluorescence intensity (a.u.)
14,CTGGTTGCCTCTGCTCTGCTCTCCCTCCATTTCGAATTTCCGGAGTCACCTAGTGCAG,10100 fluorescence intensity (a.u.)
15,GGTTCGTCCTCACCATCTCGCGAAACCATTGCTTACCATGCGGAGTCACCTAGTGCAG,9970 fluorescence intensity (a.u.)
16,CCACCGCCGGCCACACACCTCCTGCCACGCCGCGCGCTCGCGGAGTCACCTAGTGCAG,10900 fluorescence intensity (a.u.)
17,GCCACGTTCACATCTCCGACGCCTCCGTGTCCATTGCAGTCGGAGTCACCTAGTGCAG,9160 fluorescence intensity (a.u.)
18,TCGAATGTACTTTGAGATTCATACGGGGAGGGAAAAAAATCGGAGTCACCTAGTGCAG,8990 fluorescence intensity (a.u.)
19,GCCTCGCCTGCAACCTGCTTGTCTAGCACTCTTTGTGGAACGGAGTCACCTAGTGCAG,10500 fluorescence intensity (a.u.)
20,CGAGAAGGGGATGGGGAGGAGGAGAGGGAGCGGGAGAGGGCGGAGTCACCTAGTGCAG,10100 fluorescence intensity (a.u.)
21,CCCGTCACTGTCACTCGCCACACTATAAATAGCACCCAAACGGAGTCACCTAGTGCAG,9330 fluorescence intensity (a.u.)

row,Sequence,binding signal
1,ATCTTGGGAAGGCCGTTACTCACTCTAGACTTTACTCCTCCGGAGTCACCTAGTGCAG,8270 fluorescence intensity (a.u.)
2,ACTGCACTCCAAAACCTACCTCTTACTCTGCTAGTCAGTGCGGAGTCACCTAGTGCAG,9900 fluorescence intensity (a.u.)
3,AGTTTATTTTATATGGAGGGGTTTAATATATCAAATTTCACGGAGTCACCTAGTGCAG,11200 fluorescence intensity (a.u.)
4,GAGCATCTCTCTCTGGTCTCCGCTCGCCGCGGCTTCACGTCGGAGTCACCTAGTGCAG,9020 fluorescence intensity (a.u.)
5,GACTGCCAAACAATTCCCCTTCAGCTCACTGCCATCCTCCCGGAGTCACCTAGTGCAG,8480 fluorescence intensity (a.u.)
6,GAAAATGCTACACTTGTCCCGCTTCTCTAATTGTCAAATCCGGAGTCACCTAGTGCAG,8360 fluorescence intensity (a.u.)
7,TCCTACACTGTCGCTTAGGCACACTGTCTCCCTGACTGATCGGAGTCACCTAGTGCAG,8920 fluorescence intensity (a.u.)
8,TCCTACTCCGGGTCATCTACGCCACCTCCCACATGCACACCGGAGTCACCTAGTGCAG,10700 fluorescence intensity (a.u.)
9,AACTTAGCCAATTGCGCCGTGCTTTGACTACGCCCCGGAACGGAGTCACCTAGTGCAG,8080 fluorescence intensity (a.u.)
10,GATAAACTTTTGGATACTCATGACACGCTTTTCAAACTGCCGGAGTCACCTAGTGCAG,9040 fluorescence intensity (a.u.)
11,TGATCGAGAGAGGTGTTGTTGGAAGCTTGGTTGGTTGGGGCGGAGTCACCTAGTGCAG,9000 fluorescence intensity (a.u.)
12,TGTCGCCATCTCCCGATCCACCACCACGGGCGCACGCGCGCGGAGTCACCTAGTGCAG,8460 fluorescence intensity (a.u.)
13,GCGCGCGCCACCGCACCCGCGACGCCGACGTGTTCATGACCGGAGTCACCTAGTGCAG,8820 fluorescence intensity (a.u.)
14,CACTGCTTCTCTCTCTCTCCAACACAGCACCTAGTACCGCCGGAGTCACCTAGTGCAG,8540 fluorescence intensity (a.u.)
15,ACGCTTAACCTTAGAATTCTTTAGAGATCGGCTTCCGAAACGGAGTCACCTAGTGCAG,8030 fluorescence intensity (a.u.)
16,TTACAGAAACATTACCTACAATGTCAATGACTATTTGTATCGGAGTCACCTAGTGCAG,8480 fluorescence intensity (a.u.)
17,GACCTGTCTACCGCCGCCCTAGTGACTAATGTTGACCACACGGAGTCACCTAGTGCAG,12000 fluorescence intensity (a.u.)
18,TTTAATGTTCAGTCCTATGTACAGTACCATCCATTGTTTTCGGAGTCACCTAGTGCAG,8430 fluorescence intensity (a.u.)
19,CTTCTAATACGCCCCTTAGTTTTGGGATTTCTTACGAGACCGGAGTCACCTAGTGCAG,8420 fluorescence intensity (a.u.)
20,CTGGAATTTCACATGATCCTAGTCGTACTTTCTACCAGCACGGAGTCACCTAGTGCAG,8640 fluorescence intensity (a.u.)
21,TTGATGGTTTTAATATATGTTATTATTTTTATCCTATCTTCGGAGTCACCTAGTGCAG,8520 fluorescence intensity (a.u.)

row,Sequence,binding signal
1,AATTTAACTTTCTCGTTTACCGTTATCACGCTTCTCAAACCGGAGTCACCTAGTGCAG,9550 fluorescence intensity (a.u.)
2,CTCCTGTTTCCGTTAGTCTTCGTGGGTGGGCCTACAAGCACGGAGTCACCTAGTGCAG,8260 fluorescence intensity (a.u.)
3,CGTTTCGCGTTGGTTCCTCTGTCTTATTCAACGTGAGTATCGGAGTCACCTAGTGCAG,11600 fluorescence intensity (a.u.)
4,TATTAGATGTGTCTTGTTTAGTCCATATTTTCAGGTTGTTCGGAGTCACCTAGTGCAG,10000 fluorescence intensity (a.u.)
5,ATAGCTAATATCTGTTTTGTCTAGAGTTGACCATGCAAGACGGAGTCACCTAGTGCAG,8520 fluorescence intensity (a.u.)
6,TTTGATATTTTTTAACAAATATTTGACCATCCGTCTTATTCGGAGTCACCTAGTGCAG,8560 fluorescence intensity (a.u.)
7,GTGTGCTGTACTGCTGTTCCTTCGAGCCATTGACCGGTTGCGGAGTCACCTAGTGCAG,8940 fluorescence intensity (a.u.)
8,ACGGCCAGGCAAGCAAGCAAACGCCGCGGCTACCAATACCCGGAGTCACCTAGTGCAG,39600 fluorescence intensity (a.u.)
9,CCTTTTTTTTTCTATTTCTATATTTTTAAAATCTTACGTACGGAGTCACCTAGTGCAG,10900 fluorescence intensity (a.u.)
10,ACCTCTTCCTAACTAACCAGTCTGGCGAAAATCATTTTTTCGGAGTCACCTAGTGCAG,9960 fluorescence intensity (a.u.)
11,AATTAGTTTCTTGCTTCTTCTTTTTTCTTTTCTTTTTCATCGGAGTCACCTAGTGCAG,8210 fluorescence intensity (a.u.)
12,TTGTCAAACTATGGTACGTCGTTCATATCCGATTCCCGTTCGGAGTCACCTAGTGCAG,9380 fluorescence intensity (a.u.)
13,CCTTGTCTATGTTTCCACTGGTCGTGCTGGTCTCGGAGTACGGAGTCACCTAGTGCAG,8680 fluorescence intensity (a.u.)
14,TGGGGAGGCCATTGCAATCTTCAGTCTCCAGGTCTTCTTCCGGAGTCACCTAGTGCAG,8790 fluorescence intensity (a.u.)
15,GGAGGCGGAGGCGGGGCCCGTGGCGGAGGCGGAGGCGGCGCGGAGTCACCTAGTGCAG,8170 fluorescence intensity (a.u.)
16,TGCAATGTTGTTTATTCATTTTGGTTTTCTTTTTTCTAATCGGAGTCACCTAGTGCAG,8610 fluorescence intensity (a.u.)
17,TTGTAAAGCTGCTGTTCTGTTCTTGTCCCTGGTGTGTGGGCGGAGTCACCTAGTGCAG,8270 fluorescence intensity (a.u.)
18,GTCACATTTTAAATGCAGTTGAGGGTTTATGTGTTCAATACGGAGTCACCTAGTGCAG,8280 fluorescence intensity (a.u.)
19,CCAACCGTGTTATAAGTCGATTTAATTATTCTCTAGCTACCGGAGTCACCTAGTGCAG,9210 fluorescence intensity (a.u.)
20,CAGCGACGGTGGGGAGGTGGGCGTGGGCGGTTGCCGGCGGCGGAGTCACCTAGTGCAG,11200 fluorescence intensity (a.u.)
21,CGACACTCCACGTTCCAGTCGTCGCAGTCCCGGTGCGCGGCGGAGTCACCTAGTGCAG,8610 fluorescence intensity (a.u.)
